Data on one substance can be found in paper doi:10.1101/2022.12.10.519866 (bioRxiv, 2022).

Chains of the proteins cited; added tags and fusions are not shown. Lines headed by an entry give the natural chain unless they say otherwise; changes in a name come on top.
UniProt O88738: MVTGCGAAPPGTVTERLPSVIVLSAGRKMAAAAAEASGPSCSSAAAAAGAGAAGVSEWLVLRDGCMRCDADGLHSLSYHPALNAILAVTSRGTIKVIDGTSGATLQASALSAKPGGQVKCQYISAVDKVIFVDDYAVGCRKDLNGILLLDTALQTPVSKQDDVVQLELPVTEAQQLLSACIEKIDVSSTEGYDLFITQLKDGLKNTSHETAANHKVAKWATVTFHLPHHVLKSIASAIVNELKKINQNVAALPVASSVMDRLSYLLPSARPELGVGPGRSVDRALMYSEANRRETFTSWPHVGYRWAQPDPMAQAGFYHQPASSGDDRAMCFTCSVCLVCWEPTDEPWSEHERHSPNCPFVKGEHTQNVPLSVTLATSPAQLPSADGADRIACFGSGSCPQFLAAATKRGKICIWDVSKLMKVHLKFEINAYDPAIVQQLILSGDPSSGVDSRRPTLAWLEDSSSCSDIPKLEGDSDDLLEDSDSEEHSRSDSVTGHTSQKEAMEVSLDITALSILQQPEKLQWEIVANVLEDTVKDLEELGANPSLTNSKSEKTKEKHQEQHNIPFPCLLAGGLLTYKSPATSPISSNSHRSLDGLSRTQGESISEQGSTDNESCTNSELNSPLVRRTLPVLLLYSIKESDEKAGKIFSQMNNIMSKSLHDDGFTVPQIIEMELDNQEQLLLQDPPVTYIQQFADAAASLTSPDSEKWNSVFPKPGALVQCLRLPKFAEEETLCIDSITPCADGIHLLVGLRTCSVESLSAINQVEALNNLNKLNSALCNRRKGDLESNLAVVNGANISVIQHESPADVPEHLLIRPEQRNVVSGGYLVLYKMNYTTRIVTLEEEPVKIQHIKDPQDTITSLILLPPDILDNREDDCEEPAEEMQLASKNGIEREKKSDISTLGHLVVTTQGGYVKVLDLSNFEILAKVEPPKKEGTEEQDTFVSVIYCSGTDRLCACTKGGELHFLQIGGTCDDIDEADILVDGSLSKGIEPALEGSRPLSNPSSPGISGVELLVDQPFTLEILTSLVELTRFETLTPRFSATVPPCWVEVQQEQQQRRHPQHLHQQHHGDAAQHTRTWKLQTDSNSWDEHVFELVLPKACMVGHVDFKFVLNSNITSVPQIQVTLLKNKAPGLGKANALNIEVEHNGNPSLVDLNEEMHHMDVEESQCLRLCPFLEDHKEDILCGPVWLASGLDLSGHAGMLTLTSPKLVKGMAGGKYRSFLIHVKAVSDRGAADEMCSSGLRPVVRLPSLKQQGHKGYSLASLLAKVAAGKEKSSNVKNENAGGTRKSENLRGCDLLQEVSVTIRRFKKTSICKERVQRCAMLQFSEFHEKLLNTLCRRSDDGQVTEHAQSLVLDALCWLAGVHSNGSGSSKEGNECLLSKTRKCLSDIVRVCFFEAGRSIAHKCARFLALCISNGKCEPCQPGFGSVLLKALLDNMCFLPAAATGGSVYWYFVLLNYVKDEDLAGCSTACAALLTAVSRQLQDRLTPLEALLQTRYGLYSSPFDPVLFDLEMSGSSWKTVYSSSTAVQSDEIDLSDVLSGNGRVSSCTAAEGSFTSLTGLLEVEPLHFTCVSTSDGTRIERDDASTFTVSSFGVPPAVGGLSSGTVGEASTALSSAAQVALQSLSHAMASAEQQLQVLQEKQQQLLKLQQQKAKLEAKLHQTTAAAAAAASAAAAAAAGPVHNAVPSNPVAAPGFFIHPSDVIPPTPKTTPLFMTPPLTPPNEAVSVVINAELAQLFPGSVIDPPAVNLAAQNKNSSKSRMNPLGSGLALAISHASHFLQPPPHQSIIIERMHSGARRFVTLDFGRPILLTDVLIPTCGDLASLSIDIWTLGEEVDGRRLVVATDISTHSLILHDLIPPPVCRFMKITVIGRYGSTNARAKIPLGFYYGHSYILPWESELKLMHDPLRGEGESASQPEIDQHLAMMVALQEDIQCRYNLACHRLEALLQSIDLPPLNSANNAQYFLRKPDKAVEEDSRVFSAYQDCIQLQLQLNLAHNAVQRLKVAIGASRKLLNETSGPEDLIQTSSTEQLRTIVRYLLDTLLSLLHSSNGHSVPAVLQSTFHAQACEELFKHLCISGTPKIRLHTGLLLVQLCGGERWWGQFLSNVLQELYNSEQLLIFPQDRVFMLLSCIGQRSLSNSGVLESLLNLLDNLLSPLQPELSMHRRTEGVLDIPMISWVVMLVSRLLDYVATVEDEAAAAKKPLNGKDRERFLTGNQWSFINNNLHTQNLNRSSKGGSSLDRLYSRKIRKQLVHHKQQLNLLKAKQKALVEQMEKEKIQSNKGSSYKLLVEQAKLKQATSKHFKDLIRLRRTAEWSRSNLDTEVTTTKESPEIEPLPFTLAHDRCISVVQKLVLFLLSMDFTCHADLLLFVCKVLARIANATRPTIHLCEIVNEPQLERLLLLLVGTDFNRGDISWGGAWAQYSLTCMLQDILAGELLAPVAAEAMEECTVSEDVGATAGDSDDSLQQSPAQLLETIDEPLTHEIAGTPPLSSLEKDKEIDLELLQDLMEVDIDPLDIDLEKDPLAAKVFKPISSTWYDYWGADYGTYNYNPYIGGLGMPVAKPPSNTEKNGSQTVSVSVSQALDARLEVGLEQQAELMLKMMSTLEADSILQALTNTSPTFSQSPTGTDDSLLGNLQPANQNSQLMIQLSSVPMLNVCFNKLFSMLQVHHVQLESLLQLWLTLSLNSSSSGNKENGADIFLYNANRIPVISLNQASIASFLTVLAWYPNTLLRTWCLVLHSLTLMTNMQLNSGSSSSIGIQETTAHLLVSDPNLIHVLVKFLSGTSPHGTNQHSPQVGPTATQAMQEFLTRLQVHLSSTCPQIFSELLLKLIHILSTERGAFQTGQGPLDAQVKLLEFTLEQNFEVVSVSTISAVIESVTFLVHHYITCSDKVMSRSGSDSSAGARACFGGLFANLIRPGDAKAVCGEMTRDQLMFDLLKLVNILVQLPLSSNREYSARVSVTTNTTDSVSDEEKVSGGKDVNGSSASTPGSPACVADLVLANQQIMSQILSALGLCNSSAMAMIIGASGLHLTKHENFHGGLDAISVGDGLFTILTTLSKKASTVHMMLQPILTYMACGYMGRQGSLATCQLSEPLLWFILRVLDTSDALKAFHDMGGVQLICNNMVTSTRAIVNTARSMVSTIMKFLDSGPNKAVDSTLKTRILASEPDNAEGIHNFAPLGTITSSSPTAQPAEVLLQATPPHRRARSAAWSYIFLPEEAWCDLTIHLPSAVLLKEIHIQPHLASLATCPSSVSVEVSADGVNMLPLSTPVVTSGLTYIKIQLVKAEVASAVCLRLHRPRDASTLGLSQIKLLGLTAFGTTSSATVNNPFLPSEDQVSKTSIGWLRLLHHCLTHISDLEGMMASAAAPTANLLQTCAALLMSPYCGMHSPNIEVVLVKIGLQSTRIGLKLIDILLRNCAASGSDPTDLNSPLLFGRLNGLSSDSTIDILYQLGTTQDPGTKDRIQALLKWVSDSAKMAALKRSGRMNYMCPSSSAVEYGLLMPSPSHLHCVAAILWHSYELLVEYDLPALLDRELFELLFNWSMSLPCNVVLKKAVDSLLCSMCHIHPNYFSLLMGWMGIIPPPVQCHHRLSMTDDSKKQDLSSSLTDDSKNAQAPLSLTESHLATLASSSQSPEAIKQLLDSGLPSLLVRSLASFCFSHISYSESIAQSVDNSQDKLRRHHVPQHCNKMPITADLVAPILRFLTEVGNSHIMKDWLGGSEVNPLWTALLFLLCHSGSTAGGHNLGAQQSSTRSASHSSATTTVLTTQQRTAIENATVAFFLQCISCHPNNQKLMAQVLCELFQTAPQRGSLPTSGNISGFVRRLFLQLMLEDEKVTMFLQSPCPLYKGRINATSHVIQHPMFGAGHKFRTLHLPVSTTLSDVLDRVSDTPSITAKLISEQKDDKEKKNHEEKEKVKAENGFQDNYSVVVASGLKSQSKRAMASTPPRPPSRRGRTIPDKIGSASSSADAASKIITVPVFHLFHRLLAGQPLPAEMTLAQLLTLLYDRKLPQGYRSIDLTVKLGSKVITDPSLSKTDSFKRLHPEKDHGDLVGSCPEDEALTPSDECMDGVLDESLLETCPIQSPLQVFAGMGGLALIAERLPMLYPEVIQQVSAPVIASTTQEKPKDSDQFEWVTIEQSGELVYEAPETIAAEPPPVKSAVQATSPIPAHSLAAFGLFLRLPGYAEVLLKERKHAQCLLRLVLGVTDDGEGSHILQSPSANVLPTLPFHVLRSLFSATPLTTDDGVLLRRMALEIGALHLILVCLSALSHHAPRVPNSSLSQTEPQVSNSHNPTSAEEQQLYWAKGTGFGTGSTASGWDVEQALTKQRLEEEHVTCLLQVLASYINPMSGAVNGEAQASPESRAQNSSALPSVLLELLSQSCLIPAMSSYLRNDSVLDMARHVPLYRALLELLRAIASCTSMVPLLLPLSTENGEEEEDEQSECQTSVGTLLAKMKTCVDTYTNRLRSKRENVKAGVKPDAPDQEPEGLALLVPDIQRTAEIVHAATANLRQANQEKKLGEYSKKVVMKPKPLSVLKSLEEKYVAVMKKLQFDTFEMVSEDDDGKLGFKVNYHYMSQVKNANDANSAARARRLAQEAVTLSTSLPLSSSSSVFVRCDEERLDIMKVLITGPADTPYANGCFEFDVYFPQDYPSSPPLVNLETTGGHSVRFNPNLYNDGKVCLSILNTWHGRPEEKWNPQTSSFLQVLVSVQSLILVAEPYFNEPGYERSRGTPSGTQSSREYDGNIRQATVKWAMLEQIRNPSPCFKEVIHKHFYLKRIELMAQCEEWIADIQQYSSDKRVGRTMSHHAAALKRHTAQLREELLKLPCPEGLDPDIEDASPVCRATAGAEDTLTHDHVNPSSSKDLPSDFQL
UniProt P55211: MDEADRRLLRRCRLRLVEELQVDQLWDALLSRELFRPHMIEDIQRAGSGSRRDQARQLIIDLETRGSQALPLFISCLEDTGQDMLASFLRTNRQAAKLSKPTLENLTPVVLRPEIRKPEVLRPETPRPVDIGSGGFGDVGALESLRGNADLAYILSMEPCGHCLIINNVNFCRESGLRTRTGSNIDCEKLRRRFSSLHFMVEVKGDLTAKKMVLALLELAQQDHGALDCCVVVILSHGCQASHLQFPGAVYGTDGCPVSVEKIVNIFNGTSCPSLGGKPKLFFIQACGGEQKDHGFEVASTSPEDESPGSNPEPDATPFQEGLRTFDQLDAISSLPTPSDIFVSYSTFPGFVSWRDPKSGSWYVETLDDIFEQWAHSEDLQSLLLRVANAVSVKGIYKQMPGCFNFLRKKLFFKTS

The target of this assay is 3×FLAG-tagged full-length mouse BIRC6 (mouse, UniProt O88738 1-4882). Nature of the assay: SEC.

No constants are given. Whether binding was seen depends on the method and setting. Binding calls can cover weak binding; strength is not graded here.

As to “His-Caspase9-4M (E306A–D315A–D330A-C287A) (from UniProt P55211) (enzyme)”, the binding result was “binds”.
